# Measured data: PubChem BioAssay AID686938 (Drosophila RNAi Screening Center, 2013)
# Test: 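Knock-downs reducing store-operated calcium influx in Drosophila cells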 (primary screen)
# Cell system: Drosophila S2R+ cells
# Reagents: long dsRNA against Drosophila genes, about 0.25 µg dsRNA per well, roughly 10,000 cells
# Duration: 5 days of knock-down before the calcium assay
# Challenge: thapsigargin (SERCA pump blocker) to empty calcium stores; entry signal taken 4 min after adding it
# Measurement: 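Per-well fluo-4 fluorescence in two replicates, unnormalised, measured in resting cells and 4 min after store depletion by the SERCA blocker thapsigargin; ratio of the two present in few wells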
# Direction: calcium entry signal: higher = stronger calcium signal after store depletion; entry to resting ratio: higher = more calcium entry relative to resting level; resting calcium signal: higher = higher resting calcium signal
# Hit rule: 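Called when the plate z-score of the entry-to-rest ratio, mean of duplicates, falls below −3; wells with low overall dye signal (Fmax z below −2) or more than five off-targets excluded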
# Calls: active = strongly reduced calcium entry; inactive = no strong reduction
# In all, the deposit lists about 23,000 reagents; shown is an unselected part of those that have a named target and a result. Of all reagents, 75 (0.33%) got an active call. 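Raw plate signals without normalisation; calls rest on plate z-scores that were not deposited; ratio present for only 364 wells.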 The numbers tell different reagents against one gene apart. A plus sign joins genes that one reagent is predicted to hit. Reagent sequences are not shown. The record does not give: the dose of the treatment.
gene,reagent,"calcium entry signal, replicate 1 (fluorescence units)","calcium entry signal, replicate 2 (fluorescence units)",entry to resting ratio,"resting calcium signal, replicate 1 (fluorescence units)","resting calcium signal, replicate 2 (fluorescence units)",Call
CG14861,1,3.42e7,5.44e7,,1.65e7,6.30e7,inactive
CG8507,1,3.64e7,3.65e7,,1.88e7,1.88e7,inactive
BG642163,1,2.94e7,2.87e7,,1.45e7,1.41e7,inactive
BG642163,2,2.92e7,2.83e7,,1.38e7,1.38e7,inactive
Tsr1,1,2.51e7,3.08e7,,1.33e7,1.91e7,inactive
CG9664,1,4.32e7,,,2.47e7,,inactive
CG4259,1,2.63e7,3.21e7,,1.33e7,1.43e7,inactive
cdi,1,2.95e7,2.47e7,,1.47e7,1.23e7,inactive
Exn,1,2.52e7,3.61e7,,1.31e7,2.67e7,inactive
Exn,2,3.14e7,4.99e7,,1.66e7,1.95e7,inactive
CG4781,1,4.59e7,4.26e7,,2.20e7,1.92e7,inactive
CG11608,1,3.27e7,3.92e7,,1.75e7,2.07e7,inactive
CG9132,1,5.07e7,4.50e7,,2.20e7,1.72e7,inactive
Sumo,1,1.57e7,,,1.48e7,,active
JIL-1,1,3.79e7,3.28e7,,2.44e7,1.29e7,inactive
Arp53D,1,3.78e7,4.89e7,,1.92e7,2.28e7,inactive
Gr98a,1,6.07e7,3.16e7,,2.96e7,1.67e7,inactive
CG15831 (retired record),1,4.12e7,5.33e7,,2.22e7,2.29e7,inactive
Miox,1,3.28e7,3.41e7,,1.70e7,1.63e7,inactive
CG14000 + bchs,1,3.75e7,3.25e7,,1.92e7,1.62e7,inactive
aop,1,2.54e7,2.71e7,,1.48e7,1.41e7,inactive
aop,2,4.53e7,4.41e7,,2.28e7,1.96e7,inactive
Prx6c + CG12896 + Prx6b,1,4.48e7,4.69e7,,2.16e7,2.16e7,inactive
CG1116,1,3.60e7,2.83e7,,1.75e7,1.28e7,inactive
Cyp6a19,1,4.25e7,3.78e7,,1.83e7,1.92e7,inactive
bgm,1,2.41e7,,,1.57e7,,inactive
CG1314,1,4.06e7,4.94e7,,1.88e7,1.99e7,inactive
CG32643,1,3.08e7,3.39e7,,1.46e7,1.60e7,inactive
jv,1,3.39e7,4.91e7,,1.71e7,2.34e7,inactive
jv,2,2.85e7,5.26e7,,1.50e7,2.26e7,inactive
CG14829,1,2.31e7,6.83e7,,1.02e7,2.46e7,inactive
CG4462,1,4.25e7,2.95e7,,2.10e7,1.41e7,inactive
CG33325,1,3.33e7,4.11e7,,1.57e7,2.03e7,inactive
Cpr35B,1,4.78e7,3.31e7,,2.20e7,1.63e7,inactive
Cpr35B,2,3.96e7,3.69e7,,1.97e7,1.73e7,inactive
Adgf-B,1,5.82e7,6.49e7,,2.48e7,2.52e7,inactive
CG33491 (retired record) + CG33496 (retired record) + CG33487 (retired record) + 1 more,1,3.53e7,4.02e7,,2.00e7,1.74e7,inactive
mira,1,4.05e7,2.72e7,,1.88e7,1.33e7,inactive
CG13806,1,2.78e7,4.77e7,,1.55e7,2.12e7,inactive
Trf2,1,1.93e7,2.57e7,,1.17e7,1.50e7,inactive
Cyp6a22,1,4.16e7,3.96e7,,1.95e7,1.89e7,inactive
Cpr62Bc,1,3.47e7,4.13e7,,1.81e7,1.97e7,inactive
ea,1,3.78e7,5.56e7,,1.79e7,6.23e7,inactive
PIG-Wa,1,4.08e7,3.22e7,,1.80e7,1.52e7,inactive
TTLL15,1,3.40e7,3.47e7,,1.61e7,1.81e7,inactive
alpha-Est8,1,4.31e7,2.89e7,,2.05e7,1.56e7,inactive
prage,1,3.44e7,4.99e7,2.1,1.67e7,2.09e7,inactive
prage,2,2.34e7,2.44e7,,1.53e7,1.41e7,inactive
prage,3,3.48e7,5.78e7,2,1.78e7,2.27e7,inactive
prage,4,3.91e7,4.89e7,2.1,1.86e7,2.01e7,inactive
lectin-21Ca,1,2.69e7,3.31e7,,1.21e7,1.46e7,inactive
CG14448,1,2.76e7,3.67e7,,1.36e7,1.49e7,inactive
CG10154,1,3.19e7,3.89e7,,1.63e7,1.86e7,inactive
CG33635,1,2.01e7,2.48e7,,1.13e7,1.13e7,inactive
Inx3,1,4.21e7,4.87e7,,1.78e7,2.09e7,inactive
CG31693,1,2.99e7,5.45e7,,1.41e7,2.19e7,inactive
CG42788,1,3.16e7,4.66e7,,1.62e7,6.72e7,inactive
CG42788,2,3.36e7,4.50e7,,1.68e7,5.99e7,inactive
CG42788,3,3.32e7,5.03e7,,1.67e7,6.01e7,inactive

Records above whose gene name starts with T or t:
gene,reagent,"calcium entry signal, replicate 1 (fluorescence units)","calcium entry signal, replicate 2 (fluorescence units)",entry to resting ratio,"resting calcium signal, replicate 1 (fluorescence units)","resting calcium signal, replicate 2 (fluorescence units)",Call
Tsr1,1,2.51e7,3.08e7,,1.33e7,1.91e7,inactive
Trf2,1,1.93e7,2.57e7,,1.17e7,1.50e7,inactive
TTLL15,1,3.40e7,3.47e7,,1.61e7,1.81e7,inactive
